The source of these data is the supplement of paper PMC4604168 (melanoma cell lines).

The other results are listed elsewhere or left out. Repeats are few or missing, and single values can be far off.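 Cells were imaged in 1,536-well plates, and nuclei stained with an antibody against cleaved PARP were counted against all DNA-stained nuclei to give the apoptosis fraction. Screening doses were chosen to leave most cells alive, and resting and induced cleaved-PARP levels differ strongly between cell lines.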

For the assay, the system named is MeWo. Nature of the assay: cleaved PARP positive nuclei fraction relative to DMSO control; melanoma cells; higher = more apoptosis. As to conditions: library dose: low library concentration; 72 h.
Turning to `Nc1ncn([C@H]2C[C@H](O)[C@@H](CO)O2)c(=O)n1` [decitabine] + CCc1ccc(CCOc2ccc(CC3SC(=O)NC3=O)cc2)nc1 [pioglitazone] (first compound 0.1 µM, partner dose 2 µM), the “cleaved PARP positive nuclei fraction” value is 53.7%.
Under `CN1CCN(c2ccc3nc(-c4c(N)c5c(F)cccc5[nH]c4=O)[nH]c3c2)CC1` [Dovitinib] + CN(NC(=O)CC(=O)NN(C)C(=S)c1ccccc1)C(=S)c1ccccc1 [STA4783] (first compound 0.1 µM, partner dose 0.006 µM) stands 105%.
Under `Nc1ccn([C@@H]2O[C@H](CO)[C@@H](O)C2(F)F)c(=O)n1` [gemcitabine] + O=c1cc(-c2cccc3c2Sc2ccccc2S3)oc(N2CCOCC2)c1 [KU55933] (first compound 0.0004 µM, partner dose 1 µM) stands 135%.
Next, `CCCS(=O)(=O)Nc1ccc(F)c(C(=O)c2c[nH]c3ncc(Cl)cc23)c1F` + COc1cc(Nc2ncc(F)c(Nc3ccc4c(n3)NC(=O)C(C)(C)O4)n2)cc(OC)c1OC [Tamatinib] (first compound 0.08 µM, partner dose 0.4 µM): 230%.
As for `Cn1c(=O)n(-c2ccc(C(C)(C)C#N)cc2)c2c3cc(-c4cnc5ccccc5c4)ccc3ncc21` + Oc1cc(-c2nc(-c3ccccc3)[nH]c2-c2ccncc2)ccc1Cl [L779450] (first compound 0.004 µM, partner dose 0.2 µM), the “cleaved PARP positive nuclei fraction” value was 307%.
Under `CN1CCN(c2ccc3nc(-c4c(N)c5c(F)cccc5[nH]c4=O)[nH]c3c2)CC1` [Dovitinib] + COc1ccc(COc2ccc(Cc3cnc(N)nc3N)cc2OC)cc1 [GW2580] (first compound 0.1 µM, partner dose 1 µM) stands 126%; under `C=C(c1ccc(C(=O)O)cc1)c1cc2c(cc1C)C(C)(C)CCC2(C)C` [Bexarotene] + CCc1ccc(CCOc2ccc(CC3SC(=O)NC3=O)cc2)nc1 [pioglitazone] (first compound 2 µM, partner dose 2 µM), 73.5%; under `Cc1cc(Nc2cc(N3CCN(C)CC3)nc(/C=C/c3ccccc3)n2)n[nH]1` + CC(C)CCN1c2nc(Nc3cc(F)c(O)c(F)c3)ncc2N(C)C(=O)C1C [BID1870] (first compound 0.04 µM, partner dose 0.2 µM), 95.9%.
Under `CN1CCN(c2ccc3nc(-c4c(N)c5c(F)cccc5[nH]c4=O)[nH]c3c2)CC1` [Dovitinib] + CN(C)S(=O)(=O)c1ccc2c(c1)/C(=C/c1cc3c([nH]1)CCCC3)C(=O)N2 [SU6656] (first compound 0.1 µM, partner dose 0.4 µM) stands 135%.
With `CC(C)C[C@H](NC(=O)[C@H](Cc1ccccc1)NC(=O)c1cnccn1)B(O)O` [Bortezomib] + COc1cc2ncnc(Nc3ccc(Oc4ccccc4)cc3)c2cc1OC [SrcI1] (first compound 0.001 µM, partner dose 2 µM), the “cleaved PARP positive nuclei fraction” value came out at 89%.
As for `CC(C)C[C@H](NC(=O)[C@H](Cc1ccccc1)NC(=O)c1cnccn1)B(O)O` [Bortezomib] + C[C@@H]1CCN(C(=O)CC#N)C[C@@H]1N(C)c1ncnc2[nH]ccc12 [CP690550] (first compound 0.001 µM, partner dose 1 µM), the “cleaved PARP positive nuclei fraction” value was 26.4%.
Next, `CNC(=O)c1cc(Oc2ccc(NC(=O)Nc3ccc(Cl)c(C(F)(F)F)c3)cc2)ccn1` [sorafenib] + c1cc(-c2cnn3cc(-c4ccc(OCCN5CCCCC5)cc4)cnc23)ccn1 [Dorsomorphin] (first compound 0.4 µM, partner dose 0.4 µM): 36.1%; `O=C(O)c1ccc2c(c1)nc(Nc1cccc(Cl)c1)c1ccncc12` + O=C(Nc1cccc(Cl)c1)Nc1ncc(CCNc2ncnc3ccsc23)s1 [SNS314] (first compound 0.4 µM, partner dose 0.0008 µM): 39.5%.
Next, `CCCS(=O)(=O)Nc1ccc(F)c(C(=O)c2c[nH]c3ncc(Cl)cc23)c1F` + CCc1ccc(CCOc2ccc(CC3SC(=O)NC3=O)cc2)nc1 [pioglitazone] (first compound 0.08 µM, partner dose 2 µM): 98.9%.
Take `O=C(O)c1ccc2c(c1)nc(Nc1cccc(Cl)c1)c1ccncc12` + CC(C)(C)c1cnc(CSc2cnc(NC(=O)C3CCNCC3)s2)o1 [SNS-032] (first compound 0.4 µM, partner dose 0.01 µM): the “cleaved PARP positive nuclei fraction” value came out at 104%.
Next, `CN1CCN(c2ccc3nc(-c4c(N)c5c(F)cccc5[nH]c4=O)[nH]c3c2)CC1` [Dovitinib] + NC(=O)Nc1cc(-c2cccc(F)c2)sc1C(=O)N[C@H]1CCCNC1 [AZD7762] (first compound 0.1 µM, partner dose 0.02 µM): 70.2%; `O=C(O)[C@@H]1[O][Sb](=[O])([O][Sb]2(=[O])[O][C@H]([C@H](O)CO)[C@H](O)[C@H](C(=O)O)[O]2)[O][C@H]([C@H](O)CO)[C@@H]1O` (stereo partly drawn) [stibogluconate] + OCCn1cc(-c2cnc3nnn(Cc4ccc5ncccc5c4)c3n2)cn1 [PF04217903] (first compound 2 µM, partner dose 1 µM): 40.3%; `CS(=O)(=O)CCNCc1ccc(-c2ccc3ncnc(Nc4ccc(OCc5cccc(F)c5)c(Cl)c4)c3c2)o1` [lapatinib] + COc1ccc(COc2ccc(Cc3cnc(N)nc3N)cc2OC)cc1 [GW2580] (first compound 0.8 µM, partner dose 1 µM): 61%.
